# ± gives the standard deviation of the averaged measurements. This is one part of the list. Plates or batches differ in their baseline, so values are only roughly comparable.
# Tested on: E18 rat cortical neuron-glia co-culture
# Assay: total nuclei (DAPI) / Olig2+ nuclei (ratio); higher = more depletion of OPC/OL lineage cells
# Conditions: 1 µM; treatment time: 8 days (DIV5-DIV13)
# Protocol: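 Primary E18 rat cortical co-cultures (neurons, astrocytes, OPC/OLs) in 96-well plates. NIH Clinical Collection compounds were added on DIV5 in myelination medium at 5 and 1 µM for 8 days, then cells were fixed on DIV13 and stained for MBP, Olig2 and DAPI. Myelination (contiguous aligned MBP fiber length per Olig2+ nucleus) was normalised to plate controls (0.1% DMSO = 0, 1 µM DAPT = 100) as % of DAPT. Each value is from duplicate wells with 4 image fields each. Fiber length/MBP is the fiber score divided by the MBP differentiation score; DAPI/Olig2 is the ratio of total to Olig2+ nuclei.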
row,SMILES,total nuclei
1,C[C@H]1CCC[C@H](O)CCCCCc2cc(O)cc(O)c2C(=O)O1 [Zeranol],2.89
2,C[N+]1(CCC(C(N)=O)(c2ccccc2)c2ccccc2)CCCCC1 [Fenpiverinium],4.15
3,CCC1(c2ccc(N)cc2)CCC(=O)NC1=O (stereo unspecified) [Aminoglutethimide],3.92
4,Oc1cc2c(cc1O)[C@H]1c3ccccc3CN[C@@H]1CC2 (racemic) [Dihydrexidine],2.72
5,C#CCN(C)[C@H](C)Cc1ccccc1 [Selegiline],3.71 ± 1.2
6,O[C@@H]1CCCC[C@H]1N1CCC(c2ccccc2)CC1 (racemic) [Vesamicol],5.07
7,CNCC(O)c1ccc(O)cc1 (stereo unspecified) [Synephrine],2.96
8,CCN(CC)CCOC(=O)C(O)(c1ccccc1)c1ccccc1 [Benactyzine],2.73
9,O=c1c2ccccc2[se]n1-c1ccccc1 [Ebselen],4.7
10,CN1CC[C@]2(c3cccc(O)c3)Cc3nc4ccccc4cc3C[C@H]2C1,4.4
11,CC[C@]1(O)CC[C@H]2[C@@H]3CCC4=CCCC[C@@H]4[C@H]3CC[C@@]21C [Ethylestrenol],2.72
12,CC(C)CC(N(C)C)C1(c2ccc(Cl)cc2)CCC1 (stereo unspecified) [Sibutramine],3.92 ± 0.45
13,O=C(O)CCCc1ccc(N(CCCl)CCCl)cc1 [Chlorambucil],2.8
14,COc1ccc2[nH]cc(C3=CCNCC3)c2c1,2.57
15,CN1CC[C@]23c4c5ccc(O)c4O[C@H]2c2[nH]c4ccccc4c2C[C@@]3(O)[C@H]1C5 [Oxymorphindole],14.8
16,CN1[C@@H]2CC[C@H]1C[C@@H](OC(=O)[C@H](CO)c1ccccc1)C2 [Hyoscyamine],4.04
17,CC[C@@H]1C=CC=CC[C@H](C)[C@@H](O)[C@@H](C)C(=O)[C@H](C)[C@@H](O)[C@H](C)C(=O)[C@H](C)[C@@H](O)[C@H](C)C=CC(=O)O[C@H]2[C@@H](C)[C@@H](CC1)O[C@@]1(CC[C@@H](C)[C@@H](C[C@H](C)O)O1)[C@@H]2C [Oligomycin C],5.93
18,C=C1C[C@@H]2[C@H](CC[C@]3(C)C(=O)CC[C@@H]23)[C@@]2(C)C=CC(=O)C=C12 [Exemestane],2.6
19,CC(C)c1cccc(C(C)C)c1O [Propofol],3.83
20,CCOC(=O)C1(c2ccccc2)CCN(CCC(C#N)(c2ccccc2)c2ccccc2)CC1 [Diphenoxylate],3.17
21,COc1cccc(C2(O)CCCCC2CN(C)C)c1 (stereo unspecified) [Tramadol],2.76

# Same assay, conditions: 5 µM; treatment time: 8 days (DIV5-DIV13)
row,SMILES,total nuclei
1,C[C@H]1CCC[C@H](O)CCCCCc2cc(O)cc(O)c2C(=O)O1 [Zeranol],3
2,C[N+]1(CCC(C(N)=O)(c2ccccc2)c2ccccc2)CCCCC1 [Fenpiverinium],23.1
3,CCC1(c2ccc(N)cc2)CCC(=O)NC1=O (stereo unspecified) [Aminoglutethimide],4
4,Oc1cc2c(cc1O)[C@H]1c3ccccc3CN[C@@H]1CC2 (racemic) [Dihydrexidine],6.5
5,C#CCN(C)[C@H](C)Cc1ccccc1 [Selegiline],3.3 ± 0.57
6,O[C@@H]1CCCC[C@H]1N1CCC(c2ccccc2)CC1 (racemic) [Vesamicol],4.2
7,CNCC(O)c1ccc(O)cc1 (stereo unspecified) [Synephrine],2.8
8,CCN(CC)CCOC(=O)C(O)(c1ccccc1)c1ccccc1 [Benactyzine],2.9
9,O=c1c2ccccc2[se]n1-c1ccccc1 [Ebselen],> 40
10,CN1CC[C@]2(c3cccc(O)c3)Cc3nc4ccccc4cc3C[C@H]2C1,4.8
11,CC[C@]1(O)CC[C@H]2[C@@H]3CCC4=CCCC[C@@H]4[C@H]3CC[C@@]21C [Ethylestrenol],5.5
12,CC(C)CC(N(C)C)C1(c2ccc(Cl)cc2)CCC1 (stereo unspecified) [Sibutramine],3.65 ± 0.21
13,O=C(O)CCCc1ccc(N(CCCl)CCCl)cc1 [Chlorambucil],3.2
14,COc1ccc2[nH]cc(C3=CCNCC3)c2c1,2.8
15,CN1[C@@H]2CC[C@H]1C[C@@H](OC(=O)[C@H](CO)c1ccccc1)C2 [Hyoscyamine],3.7
16,CC[C@@H]1C=CC=CC[C@H](C)[C@@H](O)[C@@H](C)C(=O)[C@H](C)[C@@H](O)[C@H](C)C(=O)[C@H](C)[C@@H](O)[C@H](C)C=CC(=O)O[C@H]2[C@@H](C)[C@@H](CC1)O[C@@]1(CC[C@@H](C)[C@@H](C[C@H](C)O)O1)[C@@H]2C [Oligomycin C],8.3
17,C=C1C[C@@H]2[C@H](CC[C@]3(C)C(=O)CC[C@@H]23)[C@@]2(C)C=CC(=O)C=C12 [Exemestane],2.5
18,CC(C)c1cccc(C(C)C)c1O [Propofol],3.7
19,CCOC(=O)C1(c2ccccc2)CCN(CCC(C#N)(c2ccccc2)c2ccccc2)CC1 [Diphenoxylate],3.1
20,COc1cccc(C2(O)CCCCC2CN(C)C)c1 (stereo unspecified) [Tramadol],2.7

# From the supplement of paper PMC4840960
